Test results reported in US8642545B2 (Jiangsu Hansoh Pharmaceutical Co., Ltd, priority 2007, dated 2014).
Some peptides are written in HELM: one residue between dots, names in brackets for other building blocks, links after the first $.

Experiment: general procedure: Fmoc solid-phase peptide synthesis; rink amind resin
Settings: conjugation step
With “PEPTIDE1{[ac].G.G.T.Y.S.C.H.F.G.A.L.T.W.V.C.R.P.Q.R.G.[bAla].[Lys_open].[am]}|PEPTIDE2{[ac].G.G.T.Y.S.C.H.F.G.A.L.T.W.V.C.R.P.Q.R.G.[bAla].[Lys_open].[am]}|CHEM1{[LG3core]}$PEPTIDE1,PEPTIDE1,7:R3-16:R3|PEPTIDE2,PEPTIDE2,7:R3-16:R3|PEPTIDE1,CHEM1,23:R3-1:R1|PEPTIDE2,CHEM1,23:R3-1:R2$$$V2.0” the conjugation yield was “about 33%”. In the case of “PEPTIDE1{[ac].G.G.T.Y.S.C.H.F.G.P.L.T.W.V.C.R.P.Q.R.G.[bAla].[Lys_open].[am]}|PEPTIDE2{[ac].G.G.T.Y.S.C.H.F.G.P.L.T.W.V.C.R.P.Q.R.G.[bAla].[Lys_open].[am]}|CHEM1{[LG3core]}$PEPTIDE1,PEPTIDE1,7:R3-16:R3|PEPTIDE2,PEPTIDE2,7:R3-16:R3|PEPTIDE1,CHEM1,23:R3-1:R1|PEPTIDE2,CHEM1,23:R3-1:R2$$$V2.0”, the conjugation yield was “about 33%”. With “PEPTIDE1{[ac].G.G.T.Y.S.C.[Nle].F.G.P.L.T.W.V.C.R.P.Q.R.G.[bAla].[Lys_open].[am]}|PEPTIDE2{[ac].G.G.T.Y.S.C.[Nle].F.G.P.L.T.W.V.C.R.P.Q.R.G.[bAla].[Lys_open].[am]}|CHEM1{[LG3core]}$PEPTIDE1,PEPTIDE1,7:R3-16:R3|PEPTIDE2,PEPTIDE2,7:R3-16:R3|PEPTIDE1,CHEM1,23:R3-1:R1|PEPTIDE2,CHEM1,23:R3-1:R2$$$V2.0” the conjugation yield was “about 32.7%”. In the case of “PEPTIDE1{[ac].G.G.T.Y.S.C.H.F.G.S.L.T.W.V.C.R.P.Q.R.G.[bAla].[Lys_open].[am]}|PEPTIDE2{[ac].G.G.T.Y.S.C.H.F.G.S.L.T.W.V.C.R.P.Q.R.G.[bAla].[Lys_open].[am]}|CHEM1{[LG3core]}$PEPTIDE1,PEPTIDE1,7:R3-16:R3|PEPTIDE2,PEPTIDE2,7:R3-16:R3|PEPTIDE1,CHEM1,23:R3-1:R1|PEPTIDE2,CHEM1,23:R3-1:R2$$$V2.0”, the conjugation yield was “about 33%”.
